The target of this experiment is T1, Citrine-Bcl-xL TM (213-233) (mouse) (UniProt Q64373).
T1 sequence: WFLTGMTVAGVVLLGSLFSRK
As to the kind of experiment: co-IP; HEK293T cells coexpressing 3Myc-IPAS with Citrine-Bcl-xL TM or Citrine-Mcl-1 TM; extracts immunoprecipitated (antibody against FLAG or GFP per methods), western blotting. (Immunoblotting shows a protein as a band on a membrane.)

Results are given in words; binding and its absence hold for the method and conditions named. In cells and extracts the contact can be indirect. Binding can be weak; no strength is given.

Take “3Myc-IPAS (Inhibitory PAS domain protein)”: the binding result is on record as “binds”.

Source of the values: paper PMC8093901.
